The other results are listed elsewhere or left out.
These targets were tested with Cc1cc(ccc1-c1ccccc1)C(=O)N1CCCN(CC1)C(=O)CCl [compound 10] (assay: probe-labelled cysteine peptide fold change vs DMSO (competition) (log2 fold change); higher = less target engagement (more negative = stronger competition)). Conditions: 10 µM; THP-1; incubation time: 4 h.
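Further: competitive profiling in live THP-1 cells: cysteine peptides tagged with an iodoacetamide desthiobiotin (IA-DTB) probe, intensity after compound treatment relative to DMSO-treated cells.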

By UniProt entry, the sequences of proteins in these tests, tags left out. Where a name states a change or a piece, a line headed by the entry shows the natural chain unless it says otherwise.
UniProt Q9Y2Z0: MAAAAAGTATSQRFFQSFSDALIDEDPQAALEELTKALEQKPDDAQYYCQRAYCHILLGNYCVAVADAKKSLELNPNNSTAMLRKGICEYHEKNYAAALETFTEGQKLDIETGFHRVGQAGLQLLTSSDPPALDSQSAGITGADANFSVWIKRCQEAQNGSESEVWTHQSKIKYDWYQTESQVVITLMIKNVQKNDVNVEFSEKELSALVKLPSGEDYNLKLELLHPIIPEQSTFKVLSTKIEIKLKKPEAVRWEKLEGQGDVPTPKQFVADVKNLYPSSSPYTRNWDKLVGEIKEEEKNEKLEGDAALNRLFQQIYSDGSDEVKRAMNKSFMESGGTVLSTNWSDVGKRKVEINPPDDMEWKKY
UniProt Q9BWW4: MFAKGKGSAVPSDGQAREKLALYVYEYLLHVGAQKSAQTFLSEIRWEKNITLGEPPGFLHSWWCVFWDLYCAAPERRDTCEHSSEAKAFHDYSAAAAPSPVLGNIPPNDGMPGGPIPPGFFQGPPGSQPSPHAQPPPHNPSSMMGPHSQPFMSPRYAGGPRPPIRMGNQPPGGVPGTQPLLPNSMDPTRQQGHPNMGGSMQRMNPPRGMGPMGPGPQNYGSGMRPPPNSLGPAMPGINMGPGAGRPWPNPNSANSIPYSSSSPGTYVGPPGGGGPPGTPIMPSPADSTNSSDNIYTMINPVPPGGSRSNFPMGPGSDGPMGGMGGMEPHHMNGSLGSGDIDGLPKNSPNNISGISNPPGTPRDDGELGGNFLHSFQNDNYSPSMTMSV
UniProt P40763, whole entry, looked up: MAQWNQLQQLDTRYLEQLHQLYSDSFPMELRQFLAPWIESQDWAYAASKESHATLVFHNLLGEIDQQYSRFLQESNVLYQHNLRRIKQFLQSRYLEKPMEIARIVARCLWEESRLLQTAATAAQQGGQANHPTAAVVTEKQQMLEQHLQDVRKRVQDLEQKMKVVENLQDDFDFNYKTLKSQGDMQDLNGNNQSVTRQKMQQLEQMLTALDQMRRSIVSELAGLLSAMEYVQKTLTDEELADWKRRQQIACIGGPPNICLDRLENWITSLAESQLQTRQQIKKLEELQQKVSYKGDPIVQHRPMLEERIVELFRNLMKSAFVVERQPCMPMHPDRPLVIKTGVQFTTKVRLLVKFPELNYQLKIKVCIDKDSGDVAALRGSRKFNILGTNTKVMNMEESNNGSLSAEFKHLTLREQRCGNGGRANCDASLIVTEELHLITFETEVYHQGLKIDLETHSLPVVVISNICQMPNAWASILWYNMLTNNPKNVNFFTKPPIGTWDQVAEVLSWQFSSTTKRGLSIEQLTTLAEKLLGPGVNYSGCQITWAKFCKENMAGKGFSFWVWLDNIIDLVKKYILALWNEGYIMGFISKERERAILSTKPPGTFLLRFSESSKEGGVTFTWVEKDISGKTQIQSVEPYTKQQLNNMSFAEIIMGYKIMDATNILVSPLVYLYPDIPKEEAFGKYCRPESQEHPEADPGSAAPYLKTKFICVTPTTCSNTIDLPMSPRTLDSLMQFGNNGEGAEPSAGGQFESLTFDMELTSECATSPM
UniProt Q15833: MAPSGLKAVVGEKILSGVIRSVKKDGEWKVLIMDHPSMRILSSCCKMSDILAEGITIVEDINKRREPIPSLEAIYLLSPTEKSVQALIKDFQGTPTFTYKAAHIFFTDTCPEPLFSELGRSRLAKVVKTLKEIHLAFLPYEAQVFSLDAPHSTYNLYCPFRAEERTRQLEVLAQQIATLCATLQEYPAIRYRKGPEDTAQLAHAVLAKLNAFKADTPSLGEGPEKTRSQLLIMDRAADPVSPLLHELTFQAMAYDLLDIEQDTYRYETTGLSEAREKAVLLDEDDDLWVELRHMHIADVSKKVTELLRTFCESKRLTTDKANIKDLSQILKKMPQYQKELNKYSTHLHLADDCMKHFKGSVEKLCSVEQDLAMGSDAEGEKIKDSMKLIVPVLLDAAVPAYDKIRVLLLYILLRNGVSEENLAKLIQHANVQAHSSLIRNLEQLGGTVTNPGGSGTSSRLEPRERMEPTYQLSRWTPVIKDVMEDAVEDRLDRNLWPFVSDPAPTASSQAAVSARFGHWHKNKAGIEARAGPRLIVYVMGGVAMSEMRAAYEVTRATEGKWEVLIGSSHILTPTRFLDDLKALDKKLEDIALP
UniProt Q13043: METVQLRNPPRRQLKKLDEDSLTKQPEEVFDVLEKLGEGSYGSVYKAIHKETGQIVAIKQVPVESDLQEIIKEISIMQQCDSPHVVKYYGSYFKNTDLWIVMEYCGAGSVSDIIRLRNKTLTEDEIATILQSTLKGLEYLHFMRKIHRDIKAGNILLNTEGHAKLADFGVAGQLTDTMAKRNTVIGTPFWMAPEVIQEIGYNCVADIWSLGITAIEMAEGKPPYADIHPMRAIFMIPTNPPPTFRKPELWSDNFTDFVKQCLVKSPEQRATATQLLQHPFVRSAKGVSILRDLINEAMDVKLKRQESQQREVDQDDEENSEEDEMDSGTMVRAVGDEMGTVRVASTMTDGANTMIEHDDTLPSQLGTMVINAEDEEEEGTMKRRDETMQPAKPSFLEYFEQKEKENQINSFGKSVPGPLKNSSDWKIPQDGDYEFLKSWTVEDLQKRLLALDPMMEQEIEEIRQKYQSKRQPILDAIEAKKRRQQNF
UniProt O95793: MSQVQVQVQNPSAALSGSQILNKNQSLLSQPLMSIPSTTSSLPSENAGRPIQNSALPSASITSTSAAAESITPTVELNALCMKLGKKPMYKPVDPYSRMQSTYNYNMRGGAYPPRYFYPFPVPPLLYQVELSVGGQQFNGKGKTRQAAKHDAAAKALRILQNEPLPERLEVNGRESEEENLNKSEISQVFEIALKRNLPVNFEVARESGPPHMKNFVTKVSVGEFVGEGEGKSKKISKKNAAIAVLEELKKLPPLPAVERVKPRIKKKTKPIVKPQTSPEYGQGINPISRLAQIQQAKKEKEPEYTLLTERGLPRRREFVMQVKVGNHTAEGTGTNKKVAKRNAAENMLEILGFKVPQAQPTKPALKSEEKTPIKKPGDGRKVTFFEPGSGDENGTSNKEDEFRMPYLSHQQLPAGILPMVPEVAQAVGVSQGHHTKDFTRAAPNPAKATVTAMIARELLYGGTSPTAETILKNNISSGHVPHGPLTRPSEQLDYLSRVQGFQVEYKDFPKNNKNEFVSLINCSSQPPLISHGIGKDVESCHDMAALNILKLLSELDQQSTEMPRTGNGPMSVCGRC
UniProt Q9Y6E0: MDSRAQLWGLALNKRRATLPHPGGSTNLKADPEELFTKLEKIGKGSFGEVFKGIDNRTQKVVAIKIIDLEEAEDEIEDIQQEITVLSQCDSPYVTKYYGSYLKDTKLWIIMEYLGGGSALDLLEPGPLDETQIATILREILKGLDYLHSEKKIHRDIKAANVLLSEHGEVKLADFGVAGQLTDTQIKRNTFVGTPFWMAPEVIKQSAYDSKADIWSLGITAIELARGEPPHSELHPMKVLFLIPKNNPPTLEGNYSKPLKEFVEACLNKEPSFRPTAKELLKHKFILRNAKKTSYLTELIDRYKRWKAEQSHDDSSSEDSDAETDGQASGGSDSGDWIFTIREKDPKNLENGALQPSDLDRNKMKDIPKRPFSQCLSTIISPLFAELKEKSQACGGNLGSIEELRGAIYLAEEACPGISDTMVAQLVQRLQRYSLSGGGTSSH
UniProt Q9NP77: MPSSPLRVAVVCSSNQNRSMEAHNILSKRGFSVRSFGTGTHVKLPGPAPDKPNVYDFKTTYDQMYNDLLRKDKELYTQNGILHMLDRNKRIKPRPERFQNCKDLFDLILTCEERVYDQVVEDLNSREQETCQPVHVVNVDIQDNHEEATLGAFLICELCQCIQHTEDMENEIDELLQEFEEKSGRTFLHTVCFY
UniProt Q8IYB8: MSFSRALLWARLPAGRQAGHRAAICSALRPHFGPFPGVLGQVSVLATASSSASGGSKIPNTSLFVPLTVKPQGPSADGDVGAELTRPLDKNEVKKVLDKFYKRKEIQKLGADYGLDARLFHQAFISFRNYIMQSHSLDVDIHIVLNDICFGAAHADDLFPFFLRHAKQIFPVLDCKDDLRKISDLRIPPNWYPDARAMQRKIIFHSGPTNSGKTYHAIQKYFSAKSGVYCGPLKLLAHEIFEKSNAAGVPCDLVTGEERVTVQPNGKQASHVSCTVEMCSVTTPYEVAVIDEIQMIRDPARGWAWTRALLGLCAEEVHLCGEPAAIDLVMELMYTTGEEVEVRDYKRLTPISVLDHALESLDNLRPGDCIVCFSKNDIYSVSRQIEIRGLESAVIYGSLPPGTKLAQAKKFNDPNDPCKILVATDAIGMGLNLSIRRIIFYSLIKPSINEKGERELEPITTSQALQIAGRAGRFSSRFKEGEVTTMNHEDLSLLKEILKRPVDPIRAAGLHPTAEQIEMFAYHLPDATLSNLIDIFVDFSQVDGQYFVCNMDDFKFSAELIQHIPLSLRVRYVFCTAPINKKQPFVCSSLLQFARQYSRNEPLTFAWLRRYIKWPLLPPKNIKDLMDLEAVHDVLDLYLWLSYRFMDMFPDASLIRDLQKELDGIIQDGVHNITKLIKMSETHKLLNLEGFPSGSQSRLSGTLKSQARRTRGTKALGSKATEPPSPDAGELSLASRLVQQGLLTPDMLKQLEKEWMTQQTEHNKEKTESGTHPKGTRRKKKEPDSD
UniProt O00186: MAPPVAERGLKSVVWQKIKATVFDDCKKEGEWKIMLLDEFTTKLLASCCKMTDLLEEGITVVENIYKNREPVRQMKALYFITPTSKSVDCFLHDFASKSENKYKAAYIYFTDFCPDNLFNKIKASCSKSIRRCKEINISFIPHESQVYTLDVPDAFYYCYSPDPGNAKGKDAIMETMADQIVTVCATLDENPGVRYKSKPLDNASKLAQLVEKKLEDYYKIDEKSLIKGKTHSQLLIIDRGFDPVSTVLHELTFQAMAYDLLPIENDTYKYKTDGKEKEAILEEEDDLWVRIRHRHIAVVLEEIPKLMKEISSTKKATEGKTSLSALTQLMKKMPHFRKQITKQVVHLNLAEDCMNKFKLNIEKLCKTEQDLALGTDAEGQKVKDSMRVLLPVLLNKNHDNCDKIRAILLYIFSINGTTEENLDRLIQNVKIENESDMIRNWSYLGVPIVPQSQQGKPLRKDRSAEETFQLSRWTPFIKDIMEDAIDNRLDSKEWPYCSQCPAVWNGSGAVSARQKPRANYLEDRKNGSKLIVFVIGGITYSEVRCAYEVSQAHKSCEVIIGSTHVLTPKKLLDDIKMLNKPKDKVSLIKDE
UniProt Q9NRL3: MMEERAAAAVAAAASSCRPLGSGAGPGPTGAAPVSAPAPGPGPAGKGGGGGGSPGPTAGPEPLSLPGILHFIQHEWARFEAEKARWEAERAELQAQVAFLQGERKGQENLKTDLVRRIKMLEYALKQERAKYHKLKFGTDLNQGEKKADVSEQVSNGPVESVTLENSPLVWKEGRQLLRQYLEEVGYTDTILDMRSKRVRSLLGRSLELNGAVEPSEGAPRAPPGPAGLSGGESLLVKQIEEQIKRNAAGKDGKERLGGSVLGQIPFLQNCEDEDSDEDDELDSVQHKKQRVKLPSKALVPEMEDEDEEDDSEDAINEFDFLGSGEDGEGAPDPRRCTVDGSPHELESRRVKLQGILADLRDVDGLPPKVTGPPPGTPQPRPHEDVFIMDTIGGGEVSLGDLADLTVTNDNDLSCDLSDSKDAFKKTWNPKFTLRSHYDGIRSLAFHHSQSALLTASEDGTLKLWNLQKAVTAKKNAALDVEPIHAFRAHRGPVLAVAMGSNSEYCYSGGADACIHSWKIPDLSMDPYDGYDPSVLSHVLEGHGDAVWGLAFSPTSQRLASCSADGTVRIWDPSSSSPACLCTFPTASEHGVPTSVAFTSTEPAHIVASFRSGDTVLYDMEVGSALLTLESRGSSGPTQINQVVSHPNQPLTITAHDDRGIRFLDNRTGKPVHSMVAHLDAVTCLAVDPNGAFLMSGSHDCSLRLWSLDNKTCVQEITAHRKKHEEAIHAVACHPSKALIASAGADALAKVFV
UniProt Q9UH65: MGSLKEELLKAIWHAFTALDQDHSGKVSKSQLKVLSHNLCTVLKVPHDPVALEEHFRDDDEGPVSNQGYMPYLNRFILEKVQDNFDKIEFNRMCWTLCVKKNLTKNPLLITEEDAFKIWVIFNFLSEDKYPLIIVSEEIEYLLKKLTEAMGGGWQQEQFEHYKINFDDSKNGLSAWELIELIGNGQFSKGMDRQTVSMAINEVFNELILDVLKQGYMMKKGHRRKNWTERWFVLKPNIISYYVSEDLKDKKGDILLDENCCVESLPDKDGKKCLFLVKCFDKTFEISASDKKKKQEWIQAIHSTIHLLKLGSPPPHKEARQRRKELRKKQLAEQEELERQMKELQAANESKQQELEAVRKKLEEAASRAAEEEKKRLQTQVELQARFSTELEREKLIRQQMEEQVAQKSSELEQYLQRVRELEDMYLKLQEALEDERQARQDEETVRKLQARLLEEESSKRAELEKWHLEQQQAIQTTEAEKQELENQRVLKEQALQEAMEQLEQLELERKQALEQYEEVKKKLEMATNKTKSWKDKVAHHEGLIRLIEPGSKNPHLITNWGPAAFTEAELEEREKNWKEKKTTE

Target	probe-labelled cysteine peptide fold change
STAT6_P42226_228_CESLVDIYSQLQQEVGAAGGELEPK (UniProt P42226)	0.0404
STRN3_Q13033_604_NQLLSCSADGTVR (UniProt Q13033)	0.13
SSSCA1_O60232_125_EHQLASASELPLGSRPAPQPPVPRPEHCEGAAAGLK (UniProt O60232)	0.00536
STOML2_Q9UJZ1_167_ERESLNASIVDAINQAADCWGIR (UniProt Q9UJZ1)	-0.0119
SUPT6H_Q7KZ85_1132_AELSCR (UniProt Q7KZ85)	0.0623
SUGT1_Q9Y2Z0_49_ALEQKPDDAQYYCQR (UniProt Q9Y2Z0)	-0.0707
SUZ12_Q15022_531_RTPITHILVCRPK (UniProt Q15022)	-0.0893
SUGT1_Q9Y2Z0_62_AYCHILLGNYCVAVADAK (UniProt Q9Y2Z0)	0.116
SUMF2_Q8NBJ7_290_CAADAGRPPGEL (UniProt Q8NBJ7)	-0.371
SSRP1_Q08945_343_ITVPGNFQGHSGAQCITCSYK (UniProt Q08945)	-0.0176
STAT2_P52630_323_AFVVETQPCMPQTPHRPLILK (UniProt P52630)	0.0723
SYAP1_Q96A49_283_TQEDEEEISTSPGVSEFVSDAFDACNLNQEDLRK (UniProt Q96A49)	0.273
SSBP3_Q9BWW4_80_DTCEHSSEAK (UniProt Q9BWW4)	-0.0103
STAT3_P40763_687_YCRPESQEHPEADPGSAAPYLK (UniProt P40763)	-0.139
STXBP2_Q15833_353_YSTHLHLADDCMK (UniProt Q15833)	-0.122
SUPT4H1_P63272_16+19_ACLLCSLVK (UniProt P63272)	0.0559
SUGT1_Q9Y2Z0_88_GICEYHEK (UniProt Q9Y2Z0)	0.0968
SRRM2_Q9UQ35_1016_SPCPQEK (UniProt Q9UQ35)	-0.183

Target	probe-labelled cysteine peptide fold change
STK4_Q13043_80_EISIMQQCDSPHVVK (UniProt Q13043)	-0.0952
SUPT6H_Q7KZ85_1169_LIICNVTGIAHR (UniProt Q7KZ85)	0.207
STAU1_O95793_523_NEFVSLINCSSQPPLISHGIGK (UniProt O95793)	0.138
STK24_Q9Y6E0_415_GAIYLAEEACPGISDTMVAQLVQR (UniProt Q9Y6E0)	0.117
SSU72_Q9NP77_192_TFLHTVCFY (UniProt Q9NP77)	0.151
SUPT16H_Q9Y5B9_273_NHMHFGAITCAMGIR (UniProt Q9Y5B9)	0.0208
SRRT_Q9BXP5_628_IVHSLDYYNTCEYPNEDEMPNR (UniProt Q9BXP5)	0.181
SUPV3L1_Q8IYB8_587_KQPFVCSSLLQFAR (UniProt Q8IYB8)	-0.025
STXBP3_O00186_48_LLASCCK (UniProt O00186)	-0.0403
STIP1_P31948_339_CQQAEK (UniProt P31948)	0.44
SUPT16H_Q9Y5B9_574_INFYCPGSALGR (UniProt Q9Y5B9)	0.00628
STK26_Q9P289_392_SIAVAEAACPGITDK (UniProt Q9P289)	-0.0565
STAT3_P40763_251_QQIACIGGPPNICLDR (UniProt P40763)	-0.357
STRN4_Q9NRL3_733_KHEEAIHAVACHPSK (UniProt Q9NRL3)	-0.0666
STXBP1_P61764_110_AAHVFFTDSCPDALFNELVK (UniProt P61764)	0.24
SWAP70_Q9UH65_94_MCWTLCVK (UniProt Q9UH65)	0.0797
SUPV3L1_Q8IYB8_372_RLTPISVLDHALESLDNLRPGDCIVCFSK (UniProt Q8IYB8)	0.0877

Same assay, conditions: 50 µM; THP-1; incubation time: 4 h

Target	probe-labelled cysteine peptide fold change
STAT6_P42226_228_CESLVDIYSQLQQEVGAAGGELEPK (UniProt P42226)	-0.0978
STRN3_Q13033_604_NQLLSCSADGTVR (UniProt Q13033)	0.0439
SSSCA1_O60232_125_EHQLASASELPLGSRPAPQPPVPRPEHCEGAAAGLK (UniProt O60232)	-0.46
STOML2_Q9UJZ1_167_ERESLNASIVDAINQAADCWGIR (UniProt Q9UJZ1)	-0.271
SUPT6H_Q7KZ85_1132_AELSCR (UniProt Q7KZ85)	0.00294
SUGT1_Q9Y2Z0_49_ALEQKPDDAQYYCQR (UniProt Q9Y2Z0)	-0.276
SUZ12_Q15022_531_RTPITHILVCRPK (UniProt Q15022)	-0.0991
SUGT1_Q9Y2Z0_62_AYCHILLGNYCVAVADAK (UniProt Q9Y2Z0)	-0.0939
SUMF2_Q8NBJ7_290_CAADAGRPPGEL (UniProt Q8NBJ7)	0.187
SSRP1_Q08945_343_ITVPGNFQGHSGAQCITCSYK (UniProt Q08945)	0.28
STAT2_P52630_323_AFVVETQPCMPQTPHRPLILK (UniProt P52630)	0.181
SYAP1_Q96A49_283_TQEDEEEISTSPGVSEFVSDAFDACNLNQEDLRK (UniProt Q96A49)	0.338
SSBP3_Q9BWW4_80_DTCEHSSEAK (UniProt Q9BWW4)	-0.251
STAT3_P40763_687_YCRPESQEHPEADPGSAAPYLK (UniProt P40763)	0.0845
STXBP2_Q15833_353_YSTHLHLADDCMK (UniProt Q15833)	-0.28
SUPT4H1_P63272_16+19_ACLLCSLVK (UniProt P63272)	-0.363
SUGT1_Q9Y2Z0_88_GICEYHEK (UniProt Q9Y2Z0)	-0.0656
SRRM2_Q9UQ35_1016_SPCPQEK (UniProt Q9UQ35)	-0.221

Target	probe-labelled cysteine peptide fold change
STK4_Q13043_80_EISIMQQCDSPHVVK (UniProt Q13043)	-0.122
SUPT6H_Q7KZ85_1169_LIICNVTGIAHR (UniProt Q7KZ85)	0.256
STAU1_O95793_523_NEFVSLINCSSQPPLISHGIGK (UniProt O95793)	0.154
STK24_Q9Y6E0_415_GAIYLAEEACPGISDTMVAQLVQR (UniProt Q9Y6E0)	0.111
SSU72_Q9NP77_192_TFLHTVCFY (UniProt Q9NP77)	0.0318
SUPT16H_Q9Y5B9_273_NHMHFGAITCAMGIR (UniProt Q9Y5B9)	0.273
SRRT_Q9BXP5_628_IVHSLDYYNTCEYPNEDEMPNR (UniProt Q9BXP5)	0.111
SUPV3L1_Q8IYB8_587_KQPFVCSSLLQFAR (UniProt Q8IYB8)	0.0326
STXBP3_O00186_48_LLASCCK (UniProt O00186)	-0.763
STIP1_P31948_339_CQQAEK (UniProt P31948)	0.063
SUPT16H_Q9Y5B9_574_INFYCPGSALGR (UniProt Q9Y5B9)	0.427
STK26_Q9P289_392_SIAVAEAACPGITDK (UniProt Q9P289)	-0.0937
STAT3_P40763_251_QQIACIGGPPNICLDR (UniProt P40763)	-0.332
STRN4_Q9NRL3_733_KHEEAIHAVACHPSK (UniProt Q9NRL3)	0.103
STXBP1_P61764_110_AAHVFFTDSCPDALFNELVK (UniProt P61764)	0.527
SWAP70_Q9UH65_94_MCWTLCVK (UniProt Q9UH65)	-0.302
SUPV3L1_Q8IYB8_372_RLTPISVLDHALESLDNLRPGDCIVCFSK (UniProt Q8IYB8)	-0.0406

From the supplement of paper PMC12067093, “Discovery and optimisation of a covalent ligand for TRIM25 and its application to targeted protein ubiquitination” (Chemical Science, 2025)
